These results are taken from patent publication US12281162 (LANOVA MEDICINES DEVELOPMENT, dated 2025).

Sequences of proteins named here, by UniProt entry; tags and fusion partners are left off.
UniProt Q9NZD1: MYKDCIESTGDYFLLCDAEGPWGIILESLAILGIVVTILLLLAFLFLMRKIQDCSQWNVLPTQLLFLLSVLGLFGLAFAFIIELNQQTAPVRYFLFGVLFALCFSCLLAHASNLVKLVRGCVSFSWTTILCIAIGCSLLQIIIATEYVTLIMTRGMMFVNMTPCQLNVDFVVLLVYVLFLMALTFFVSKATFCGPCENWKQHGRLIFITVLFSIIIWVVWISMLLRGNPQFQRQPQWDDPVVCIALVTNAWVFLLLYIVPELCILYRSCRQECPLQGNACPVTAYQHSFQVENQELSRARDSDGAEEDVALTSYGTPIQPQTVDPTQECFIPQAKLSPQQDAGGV

Results are given in words; binding and its absence hold for the method and conditions named. Some results given as binding are weak or reduced against the parent protein; the word gives no strength.

The target in this assay is human G-protein-coupled receptor family C group 5 member D (GPRC5D) (human) (UniProt Q9NZD1). In words: FACS, CHO-K1/GPRC5D. A general note: In flow cytometry, cells or beads pass a laser one at a time.

B1: 58-H2L2 (antibody, V domains shown)
VH: QVQLVQSGAEVKKPGASVKVSCKASGYSFTGYYIHWVRQAPGQGLEWIGYISSYNAATSFNQKFKGRVTFTVDTSTSTVYMELSSLRSEDTAVYYCARTELRGPWFAYWGQGTLVTVSS
VL: DTQMTQSPSSLSASVGDRVTITCSASSSVSYMNWYQQKPGKAPKRLIYDTSKLASGVPSRFSGSGSGTDYTLTISSLQPEDFATYYCQQWSNNPLTFGQGTKLEIK
notes: humanized 58F9G10, VH v2 x VL v2
With B1, the binding result is given as “binds”.

B2: 58-H2L1 (antibody, V domains shown)
VH: QVQLVQSGAEVKKPGASVKVSCKASGYSFTGYYIHWVRQAPGQGLEWIGYISSYNAATSFNQKFKGRVTFTVDTSTSTVYMELSSLRSEDTAVYYCARTELRGPWFAYWGQGTLVTVSS
VL: DIQMTQSPSSLSASVGDRVTITCSASSSVSYMNWYQQKPGKAPKLLIYDTSKLASGVPSRFSGSGSGTDFTLTISSLQPEDFATYYCQQWSNNPLTFGQGTKLEIK
notes: humanized 58F9G10, VH v2 x VL v1
With B2, the binding entry is “binds”.

B3: 58-H4L2 (antibody, V domains shown)
VH: QVQLVQSGAEVKKPGASVKISCKASGYSFTGYYIHWVKQAPGQGLEWIGYISSYNAATSFNQKFKGRATFTVDTSTSTAYMEFSSLRSEDSAVYYCARTELRGPWFAYWGQGTLVTVSS
VL: DTQMTQSPSSLSASVGDRVTITCSASSSVSYMNWYQQKPGKAPKRLIYDTSKLASGVPSRFSGSGSGTDYTLTISSLQPEDFATYYCQQWSNNPLTFGQGTKLEIK
notes: humanized 58F9G10, VH v4 x VL v2
As to B3, the binding result was “binds”.

B4: 58-H3L3 (antibody, V domains shown)
VH: QVQLVQSGAEVKKPGASVKVSCKASGYSFTGYYIHWVKQAPGQGLEWIGYISSYNAATSFNQKFKGRVTFTVDTSTSTVYMEFSSLRSEDTAVYYCARTELRGPWFAYWGQGTLVTVSS
VL: DTQLTQSPSSLSASVGDRVTMTCSASSSVSYMNWYQQKPGKAPKRLIYDTSKLASGVPSRFSGSGSGTDYTLTISSMQPEDFATYYCQQWSNNPLTFGQGTKLEIK
notes: humanized 58F9G10, VH v3 x VL v3
In the case of B4, the binding entry is “binds”.

B5: 58-H1L3 (antibody, V domains shown)
VH: QVQLVQSGAEVKKPGASVKVSCKASGYSFTGYYIHWVRQAPGQGLEWMGYISSYNAATSFNQKFKGRVTMTRDTSTSTVYMELSSLRSEDTAVYYCARTELRGPWFAYWGQGTLVTVSS
VL: DTQLTQSPSSLSASVGDRVTMTCSASSSVSYMNWYQQKPGKAPKRLIYDTSKLASGVPSRFSGSGSGTDYTLTISSMQPEDFATYYCQQWSNNPLTFGQGTKLEIK
notes: humanized 58F9G10, VH v1 x VL v3
Regarding B5, the binding entry is on record as “binds”.

B6: 58-H1L2 (antibody, V domains shown)
VH: QVQLVQSGAEVKKPGASVKVSCKASGYSFTGYYIHWVRQAPGQGLEWMGYISSYNAATSFNQKFKGRVTMTRDTSTSTVYMELSSLRSEDTAVYYCARTELRGPWFAYWGQGTLVTVSS
VL: DTQMTQSPSSLSASVGDRVTITCSASSSVSYMNWYQQKPGKAPKRLIYDTSKLASGVPSRFSGSGSGTDYTLTISSLQPEDFATYYCQQWSNNPLTFGQGTKLEIK
notes: humanized 58F9G10, VH v1 x VL v2
Consider B6, for which the binding entry is given as “binds”.

B7: 58-H3L2 (antibody, V domains shown)
VH: QVQLVQSGAEVKKPGASVKVSCKASGYSFTGYYIHWVKQAPGQGLEWIGYISSYNAATSFNQKFKGRVTFTVDTSTSTVYMEFSSLRSEDTAVYYCARTELRGPWFAYWGQGTLVTVSS
VL: DTQMTQSPSSLSASVGDRVTITCSASSSVSYMNWYQQKPGKAPKRLIYDTSKLASGVPSRFSGSGSGTDYTLTISSLQPEDFATYYCQQWSNNPLTFGQGTKLEIK
notes: humanized 58F9G10, VH v3 x VL v2
In the case of B7, the binding entry is listed as “binds”.

B8: 58-H2L3 (antibody, V domains shown)
VH: QVQLVQSGAEVKKPGASVKVSCKASGYSFTGYYIHWVRQAPGQGLEWIGYISSYNAATSFNQKFKGRVTFTVDTSTSTVYMELSSLRSEDTAVYYCARTELRGPWFAYWGQGTLVTVSS
VL: DTQLTQSPSSLSASVGDRVTMTCSASSSVSYMNWYQQKPGKAPKRLIYDTSKLASGVPSRFSGSGSGTDYTLTISSMQPEDFATYYCQQWSNNPLTFGQGTKLEIK
notes: humanized 58F9G10, VH v2 x VL v3
As to B8, the binding result is “binds”.

B9: 58-H4L1 (antibody, V domains shown)
VH: QVQLVQSGAEVKKPGASVKISCKASGYSFTGYYIHWVKQAPGQGLEWIGYISSYNAATSFNQKFKGRATFTVDTSTSTAYMEFSSLRSEDSAVYYCARTELRGPWFAYWGQGTLVTVSS
VL: DIQMTQSPSSLSASVGDRVTITCSASSSVSYMNWYQQKPGKAPKLLIYDTSKLASGVPSRFSGSGSGTDFTLTISSLQPEDFATYYCQQWSNNPLTFGQGTKLEIK
notes: humanized 58F9G10, VH v4 x VL v1
Regarding B9, the binding entry was “binds”.

B10: 58-H4L3 (antibody, V domains shown)
VH: QVQLVQSGAEVKKPGASVKISCKASGYSFTGYYIHWVKQAPGQGLEWIGYISSYNAATSFNQKFKGRATFTVDTSTSTAYMEFSSLRSEDSAVYYCARTELRGPWFAYWGQGTLVTVSS
VL: DTQLTQSPSSLSASVGDRVTMTCSASSSVSYMNWYQQKPGKAPKRLIYDTSKLASGVPSRFSGSGSGTDYTLTISSMQPEDFATYYCQQWSNNPLTFGQGTKLEIK
notes: humanized 58F9G10, VH v4 x VL v3
As for B10, the binding entry is recorded as “binds”.

B11: 34-H2L2 (antibody, V domains shown)
VH: EVQLVESGGGLVKPGGSLRLSCAASGFTFSSYGMSWVRQTPGKGLEWVATISSGGSYTYYPDSVKGRFTISRDNAKNSLYLQMSSLRAEDTAVYYCARQGGDAMDYWGQGTLVTVSS
VL: DIQMTQSPSSLSASVGDRVTITCRASQSINNNLHWYQQKPGKAPKLLIYYASQSISGIPSRFSGSGSGTDFTLTISSVQPEDFATYFCQQSNSRLTFGGGTKVEIK
notes: humanized 34D3H1, VH v2 x VL v2
For the molecule B11, the binding result is on record as “binds”.

B12: 34-H3L4 (antibody, V domains shown)
VH: EVHLVESGGGLVKPGGSLRLSCAASGFTFSSYGMSWVRQTPGKRLEWVATISSGGSYTYYPDSVKGRFTISRDNAKNSLNLQMSSLRAEDTAVYYCARQGGDAMDYWGQGTLVTVSS
VL: DIVLTQSPSSLSVSVGDRVTLTCRASQSINNNLHWYQQKPGKSPKLLIYYASQSISGIPSRFSGSGSGTDFTLTISSVQPEDFATYFCQQSNSRLTFGGGTKLEIK
notes: humanized 34D3H1, VH v3 x VL v4
In the case of B12, the binding entry is on record as “binds”.

B13: 34-H1L3 (antibody, V domains shown)
VH: EVQLVESGGGLVKPGGSLRLSCAASGFTFSSYGMSWVRQAPGKGLEWVSTISSGGSYTYYPDSVKGRFTISRDNAKNSLYLQMNSLRAEDTAVYYCARQGGDAMDYWGQGTLVTVSS
VL: DIQLTQSPSSLSASVGDRVTITCRASQSINNNLHWYQQKPGKSPKLLIYYASQSISGIPSRFSGSGSGTDFTLTISSVQPEDFATYFCQQSNSRLTFGGGTKLEIK
notes: humanized 34D3H1, VH v1 x VL v3
Regarding B13, the binding result is on record as “binds”.

B14: 34-H3L2 (antibody, V domains shown)
VH: EVHLVESGGGLVKPGGSLRLSCAASGFTFSSYGMSWVRQTPGKRLEWVATISSGGSYTYYPDSVKGRFTISRDNAKNSLNLQMSSLRAEDTAVYYCARQGGDAMDYWGQGTLVTVSS
VL: DIQMTQSPSSLSASVGDRVTITCRASQSINNNLHWYQQKPGKAPKLLIYYASQSISGIPSRFSGSGSGTDFTLTISSVQPEDFATYFCQQSNSRLTFGGGTKVEIK
notes: humanized 34D3H1, VH v3 x VL v2
As to B14, the binding result is given as “binds”.

B15: 34-H3L1 (antibody, V domains shown)
VH: EVHLVESGGGLVKPGGSLRLSCAASGFTFSSYGMSWVRQTPGKRLEWVATISSGGSYTYYPDSVKGRFTISRDNAKNSLNLQMSSLRAEDTAVYYCARQGGDAMDYWGQGTLVTVSS
VL: DIQMTQSPSSLSASVGDRVTITCRASQSINNNLHWYQQKPGKAPKLLIYYASQSISGVPSRFSGSGSGTDFTLTISSLQPEDFATYYCQQSNSRLTFGGGTKVEIK
notes: humanized 34D3H1, VH v3 x VL v1
Consider B15, for which the binding result is recorded as “binds”.

B16: 34-H1L2 (antibody, V domains shown)
VH: EVQLVESGGGLVKPGGSLRLSCAASGFTFSSYGMSWVRQAPGKGLEWVSTISSGGSYTYYPDSVKGRFTISRDNAKNSLYLQMNSLRAEDTAVYYCARQGGDAMDYWGQGTLVTVSS
VL: DIQMTQSPSSLSASVGDRVTITCRASQSINNNLHWYQQKPGKAPKLLIYYASQSISGIPSRFSGSGSGTDFTLTISSVQPEDFATYFCQQSNSRLTFGGGTKVEIK
notes: humanized 34D3H1, VH v1 x VL v2
Regarding B16, the binding result is “binds”.

B17: 34-H2L1 (antibody, V domains shown)
VH: EVQLVESGGGLVKPGGSLRLSCAASGFTFSSYGMSWVRQTPGKGLEWVATISSGGSYTYYPDSVKGRFTISRDNAKNSLYLQMSSLRAEDTAVYYCARQGGDAMDYWGQGTLVTVSS
VL: DIQMTQSPSSLSASVGDRVTITCRASQSINNNLHWYQQKPGKAPKLLIYYASQSISGVPSRFSGSGSGTDFTLTISSLQPEDFATYYCQQSNSRLTFGGGTKVEIK
notes: humanized 34D3H1, VH v2 x VL v1
As to B17, the binding result is listed as “binds”.

B18: 34-H2L3 (antibody, V domains shown)
VH: EVQLVESGGGLVKPGGSLRLSCAASGFTFSSYGMSWVRQTPGKGLEWVATISSGGSYTYYPDSVKGRFTISRDNAKNSLYLQMSSLRAEDTAVYYCARQGGDAMDYWGQGTLVTVSS
VL: DIQLTQSPSSLSASVGDRVTITCRASQSINNNLHWYQQKPGKSPKLLIYYASQSISGIPSRFSGSGSGTDFTLTISSVQPEDFATYFCQQSNSRLTFGGGTKLEIK
notes: humanized 34D3H1, VH v2 x VL v3
For B18, the binding entry is given as “binds”.

B19: 34-H2L4 (antibody, V domains shown)
VH: EVQLVESGGGLVKPGGSLRLSCAASGFTFSSYGMSWVRQTPGKGLEWVATISSGGSYTYYPDSVKGRFTISRDNAKNSLYLQMSSLRAEDTAVYYCARQGGDAMDYWGQGTLVTVSS
VL: DIVLTQSPSSLSVSVGDRVTLTCRASQSINNNLHWYQQKPGKSPKLLIYYASQSISGIPSRFSGSGSGTDFTLTISSVQPEDFATYFCQQSNSRLTFGGGTKLEIK
notes: humanized 34D3H1, VH v2 x VL v4
For B19, the binding result is recorded as “binds”.

B20: 34-H3L3 (antibody, V domains shown)
VH: EVHLVESGGGLVKPGGSLRLSCAASGFTFSSYGMSWVRQTPGKRLEWVATISSGGSYTYYPDSVKGRFTISRDNAKNSLNLQMSSLRAEDTAVYYCARQGGDAMDYWGQGTLVTVSS
VL: DIQLTQSPSSLSASVGDRVTITCRASQSINNNLHWYQQKPGKSPKLLIYYASQSISGIPSRFSGSGSGTDFTLTISSVQPEDFATYFCQQSNSRLTFGGGTKLEIK
notes: humanized 34D3H1, VH v3 x VL v3
With B20, the binding result is “binds”.

B21: 34-H1L4 (antibody, V domains shown)
VH: EVQLVESGGGLVKPGGSLRLSCAASGFTFSSYGMSWVRQAPGKGLEWVSTISSGGSYTYYPDSVKGRFTISRDNAKNSLYLQMNSLRAEDTAVYYCARQGGDAMDYWGQGTLVTVSS
VL: DIVLTQSPSSLSVSVGDRVTLTCRASQSINNNLHWYQQKPGKSPKLLIYYASQSISGIPSRFSGSGSGTDFTLTISSVQPEDFATYFCQQSNSRLTFGGGTKLEIK
notes: humanized 34D3H1, VH v1 x VL v4
As to B21, the binding result is given as “binds”.
